# Among all 31,000 sequences or so, about 1,400 (4.5%) were called active.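 Rule for the calls: active = median seed-adjusted z-score above 1 or below -1; inactive = the rest.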 The list shows a part of the results.
# Assay: Novel Modifiers of Survival Motor Neuron (SMN) Protein: Gene Identification via Genome-wide siRNA Screen;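 note: luminescence tracks full-length SMN protein made from the SMN2 reporter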
# Conditions: HEK293T SMN2-luciferase reporter, siRNA knockdown, 72 h; actives lie on both sides
# Source text: Spinal muscular atrophy (SMA) is the most common neuromuscular autosomal recessive disorder and one of the leading genetic causes of infant death. SMA results from mutations inducing loss of function or deletion in the survival of motor neuron-1 gene (SMN1), leading to deficiency of the survival motor neuron (SMN) protein. Although a second nearly identical gene, SMN2, is retained in humans, its expression primarily produces an aberrantly spliced isoform that is largely unstable and quickly degraded. We performed a genome-wide RNAi screen using a cell-based reporter assay to identify genes and pathways that modulate SMN protein stability. The screen identified over 200 genes that led to the greatest increase or decrease in luciferase expression.
# Using HEK293T cells stably expressing a luciferase reporter that combines the promoter and splicing based cassettes in tandem with the major portion of the native SMN2 cDNA with luciferase, we performed a genome-wide RNAi screen to identify modulators of SMN protein levels. Luciferase is expressed when full-length SMN protein is generated with luminescence signal proportional to SMN protein levels. Our luciferase-based reporter assay was used to screen Ambion Silencer Select Human Druggable Genome siRNA library (10418 genes, 3 unique siRNAs per gene) using lipid-based reverse transfection.
# Briefly, 1 pmol of each siRNA was spotted to a well of a 384-well plate (Corning, Corning, NY) and 20 microL of serum-free DMEM containing […] of Lipofectamine RNAiMax (Life Technologies, Carlsbad, CA) was then added to each well. Transfected cells were maintained at 37 degrees C in 5% CO2 for 72 hours, 20 microL of ONE-Glo Reagent (Promega) was added to wells for luciferase quantification. Raw luminescence reads were normalized to Ambion(R) Silencer(R) Negative Control #2 siRNA, then log10 transformed. A robust statistical measure of median absolute deviation (MAD) to standardize siRNA activities from each screen. Common Seed Analysis was used to help prioritize clean hits as opposed to those appearing to arise from seed based off-target effects. Candidate modulators were defined as the genes having a MAD score greater than 1.0 or less than -1.0.
row,Sequence,median seed-adjusted z-score
1,CGUGUGCGACAGUGACAUATT against RCAN2,inactive: -0.185
2,CAUCGGAAAGACAAACUAUTT against ZNF699,inactive: -0.428
3,CCUACAUCACGGAAACGGATT against PTPN3,inactive: -0.535
4,GGUGGGUGGUAAGAGGGAATT against AQP2,inactive: -0.433
5,GAACCAACACGGAAAGAAATT against RRAS2,inactive: -0.0229
6,CCAUCACCCAUGUUCGAGATT against GRIK3,inactive: 0.128
7,GCAGCACGAAGGAUACUGATT against ABCA4,active: -1.09
8,CUUUAAACAAUUCCGUUUATT against GABRG3,inactive: 0
9,CAAGAACUAUUCUUAUGCATT against ITSN1,inactive: 0.00218
10,CCAACCAUGUGACACCUUUTT against AUP1,inactive: 0.305
11,CACUAGCCUUGGAAUUGGATT against TREH,inactive: 0.396
12,CAUAUUAACCGGUGGAGAATT against EMX2,inactive: 0.324
13,GAGGACAACUUGUACAAGATT against ITGB2,inactive: -0.765
14,CCCGUACUACAUAUAAGAATT against ZNF506,inactive: -0.235
15,GGACUUGUGCAGAAAAUCATT against NELL2,inactive: 0.0918
16,GGAGAGACGUGUCAGACGATT against HCCA2,inactive: 0.862
17,GACUGACCAGGGCAUCAAATT against CAT,inactive: 0
18,GCUCCGAUUUUAUUCGCAUTT against CD27,inactive: 0.5
19,GCAUCGUGCUGAUCGGCAUTT against ITGB2,inactive: -0.765
20,GAAGCUGGAUCGCUACUCATT against KCNH2,inactive: 0.1
21,GGAUGGUGACUUGAAGGAATT against CHST8,inactive: 0.341
22,GGUGGUCUCUUCAUCCGAATT against GRIA4,inactive: 0
23,GUAAAUCACCGGCUACAAATT against ITGA3,inactive: 0

row,Sequence,median seed-adjusted z-score
1,CCUCACUCAUGGAACUUAATT against PRCP,inactive: -0.481
2,GAAUAUCUACAAAAUCGAATT against NOP58,inactive: 0.101
3,ACAGGAACAUGGUCUUGCUTT against ZNF789,inactive: 0.0534
4,GGCUGUAAACGAUACUGGATT against MSH6,inactive: -0.182
5,GAAAGGCCUUUAGCUUGUATT against ZNF573,inactive: -0.169
6,CAUCGGUGUUCGAGAAGUATT against RHOF,inactive: 0.0711
7,GGAAAUACUCUUUAAUCCUTT against ACTR6,inactive: 0.189
8,GCUCCUUGCUACCAUAGUATT against CCBP2,inactive: -0.0896
9,GAAGGACAAUUCAUCGAUATT against MYH1,inactive: -0.567
10,GCAGAAGAAAGAACCCGUUTT against DYNC1I1,inactive: -0.716
11,CGCGCAAGGUUUUAGCUUUTT against FDXR,inactive: 0.6
12,ACACUGGAUUGUUCUUUUUTT against COMT,inactive: -0.0808
13,CCGACAUGCUGGGAGAUUATT against GPR56,inactive: -0.109
14,GCAACUACACGGCUUCUUUTT against SLC16A13,inactive: -0.0537
15,GCCUUCUACACUUACAUGATT against EVX1,active: 1
16,GCAGCUCCCGAUGUCCAAATT against HDHD1A,inactive: -0.937
17,GAAAGUCAGCUAGAUCCUATT against EPDR1,inactive: 0.369
18,ACUGUAAAAUAAUCGCUAATT against TLX2,inactive: -0.182
19,GACUGAAAAUUUUACUAGATT against RKHD4,inactive: 0.0683
20,CCAUGCUCACUGUCUCUUUTT against THBS3,inactive: 0.429
21,GAUCCGCACUGUGGAUAUATT against RAB13,inactive: -0.599
22,CAAUAGUCCUGAGACCGAATT against MYST3,inactive: -0.49
23,GUUAAGGGAUUAUAUGGAATT against LDHC,inactive: 0.537

row,Sequence,median seed-adjusted z-score
1,GGAGGGACACCUUAAGGAATT against HSPA12A,inactive: 0.0319
2,GAAGGACUCUGCAUAUGAUTT against SLC2A14,active: -1.09
3,GGAUUCUCACUGGUCGCAATT against SLC20A2,inactive: -0.0546
4,GGAUCCAUCUGACCACAGATT against RFPL1,inactive: 0.195
5,AGUCAUAUUUGAAUGUCUATT against SLC6A12,inactive: -0.708
6,CUCAAGUACUUUACUCGGATT against LCN8,inactive: 0.112
7,GGAACUGCAUGCUGAAUGATT against AXL,inactive: -0.603
8,UCUCUUCCAUUGCAGCUUATT against DHRS2,inactive: 0.35
9,GAAUGCAUCAUGUAGUAAATT against ZSCAN18,inactive: 0.125
10,CCUUCACAAUAGCAGCGGATT against TAP2,inactive: -0.768
11,CCUCAGUUGGAGUUUCUAATT against TBCEL,inactive: 0.567
12,GGAUCACGUCUAAACCAGUTT against GABRA1,inactive: -0.405
13,CACUUGAACGGACAUAUCATT against PATZ1,inactive: -0.57
14,CAAACACCCUAGAUGAUCUTT against S100G,inactive: -0.809
15,GAAUCAAGGUGUAAGAACATT against EPHA4,inactive: -0.0739
16,CACCUACUGUGAUGACAGATT against EPAS1,inactive: -0.166
17,GACCUUUUGUCAUCCCAUUTT against RUNX1T1,inactive: 0.181
18,GAGGAGUACGAGUUCCUGATT against ARHGDIA,inactive: 0.627
19,CAUUGGGCCUAGAAAUUCATT against CNKSR1,inactive: 0.217
20,CCGGUAUUAGAAUCAAAGATT against POLS,inactive: -0.334
21,CCGUAAACUUCAUAACAUUTT against DYRK1A,active: -1.3
22,GGAAUUAGGUAUAAGUUCATT against ADAMTS6,inactive: 0.023
23,GAGUAGAACUUUCCAAAGATT against SRPR,inactive: 0.242

# 18 entries from above, tab-delimited.
row	Sequence	median seed-adjusted z-score
3	GGAUUCUCACUGGUCGCAATT against SLC20A2	inactive: -0.0546
4	GGAUCCAUCUGACCACAGATT against RFPL1	inactive: 0.195
5	AGUCAUAUUUGAAUGUCUATT against SLC6A12	inactive: -0.708
6	CUCAAGUACUUUACUCGGATT against LCN8	inactive: 0.112
7	GGAACUGCAUGCUGAAUGATT against AXL	inactive: -0.603
8	UCUCUUCCAUUGCAGCUUATT against DHRS2	inactive: 0.35
9	GAAUGCAUCAUGUAGUAAATT against ZSCAN18	inactive: 0.125
10	CCUUCACAAUAGCAGCGGATT against TAP2	inactive: -0.768
11	CCUCAGUUGGAGUUUCUAATT against TBCEL	inactive: 0.567
12	GGAUCACGUCUAAACCAGUTT against GABRA1	inactive: -0.405
13	CACUUGAACGGACAUAUCATT against PATZ1	inactive: -0.57
14	CAAACACCCUAGAUGAUCUTT against S100G	inactive: -0.809
15	GAAUCAAGGUGUAAGAACATT against EPHA4	inactive: -0.0739
16	CACCUACUGUGAUGACAGATT against EPAS1	inactive: -0.166
17	GACCUUUUGUCAUCCCAUUTT against RUNX1T1	inactive: 0.181
18	GAGGAGUACGAGUUCCUGATT against ARHGDIA	inactive: 0.627
19	CAUUGGGCCUAGAAAUUCATT against CNKSR1	inactive: 0.217
20	CCGGUAUUAGAAUCAAAGATT against POLS	inactive: -0.334

# From PubChem BioAssay AID1347426 (Functional Genomics Laboratory (NCATS/FGL), 2020)
